Assay results as given in patent publication US20160237414A1.
These are yes or no findings as the source states them, for the method shown. Some results given as binding are weak or reduced against the parent protein; the word gives no strength. Each block holds one binder with its values, some of them ahead of it.

Assays:
[1] = biological target: T1, Purified luminal domain LIMP-2 (ld-LIMP2) (UniProt Q14108); test: fluorescence polarization, ldLIMP2 fixed at 50 nM (FIG. 7A)
T1 sequence (looked up): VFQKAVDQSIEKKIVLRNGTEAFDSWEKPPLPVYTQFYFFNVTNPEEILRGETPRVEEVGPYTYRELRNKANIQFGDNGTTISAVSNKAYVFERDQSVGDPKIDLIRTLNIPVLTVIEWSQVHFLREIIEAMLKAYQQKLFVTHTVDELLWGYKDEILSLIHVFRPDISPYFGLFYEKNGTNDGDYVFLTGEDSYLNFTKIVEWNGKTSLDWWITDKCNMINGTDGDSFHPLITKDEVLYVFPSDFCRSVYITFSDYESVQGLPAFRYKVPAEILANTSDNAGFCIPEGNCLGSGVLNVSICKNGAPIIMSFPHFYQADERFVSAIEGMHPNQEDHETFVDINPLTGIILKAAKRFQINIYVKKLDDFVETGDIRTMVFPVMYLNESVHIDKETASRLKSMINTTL

[2] = biological target: T1, Purified luminal domain LIMP-2 (ld-LIMP2); test: fluorescence polarization at various ldLIMP-2 concentrations (FIG. 12)
[3] = biological target: T1, Purified luminal domain LIMP-2 (ld-LIMP2); test: fluorescence polarization competition, labeled against unlabeled WT peptide (FIG. 7C)
[4] = biological target: T1, Purified luminal domain LIMP-2 (ld-LIMP2); test: peptide concentration giving 50% of maximal binding against ldLIMP2 concentration (FIG. 12)
[5] = biological target: T1, Purified luminal domain LIMP-2 (ld-LIMP2); test: competitive immunoprecipitation, peptide at 0 to 5x molar excess over GCase (FIG. 8A, 8B)
[6] = biological target: T1, Purified luminal domain LIMP-2 (ld-LIMP2); test: competitive immunoprecipitation, peptide at 0 to 5x molar excess over GCase, anti-LIMP-2 beads, Western blot (FIG. 8A)

binding [1]: binds
B1: DSPIAV peptide (SEQ ID NO 18) (I403A), FITC labeled (peptide)
peptide: DSPIAV
modifications: fluorescent probe (FITC) covalently linked to the C terminal end

binding [2]: binds
binding [3]: binds
binding [4]: binds
B2: DSPIIV (SEQ ID NO 15) GCase peptide, FITC labeled (peptide)
peptide: DSPIIV
modifications: fluorescent probe (FITC) covalently linked to the C terminal end

binding [3]: binds
binding [5]: binds
binding [6]: binds
B3: DSPIIV (SEQ ID NO 15) GCase peptide, unlabeled (peptide)
peptide: DSPIIV

binding [1]: binds
B4: DSPAIV peptide (SEQ ID NO 17) (I402A), FITC labeled (peptide)
peptide: DSPAIV
modifications: fluorescent probe (FITC) covalently linked to the C terminal end
